Assay results reported in patent US8216786B2, “Genetic polymorphisms associated with cardiovascular diseases, methods of detection and uses thereof” (Celera Corporation, priority 2008, dated 2012).
Further values from the same series stand in other lists.

Tested on: individuals who have previously had an MI
Test: CARE trial: effect of pravastatin vs placebo on coronary events (endpt1, rmi) by SNP genotype subgroup
Assay type: in vivo, human
Conditions: endpt1
Method: In Tables 21-22, the column labeled “Endpoint” indicates whether the endpoint that was analyzed was the primary endpoint of the CARE study (a composite endpoint of fatal coronary event or nonfatal MI, and identified as “endpt1”) or a composite endpoint of confirmed fatal or nonfatal MI (identified as “rmi”). […] As used herein, the term “benefit” (with respect to a preventive or therapeutic drug treatment) is defined as achieving a reduced risk for a disease that the drug is intended to treat or prevent (e.g., CVD such as CHD, particularly MI, or hypertension) by administering the drug treatment, compared with the risk for the disease in the absence of receiving the drug treatment (or receiving a placebo in lieu of the drug treatment) for the same genotype. […] J. […] (1996) New England Journal of Medicine 335: 1001-1009. […] A well-documented MI was one of the enrollment criteria for entry into the CARE study. Patients were enrolled in the CARE trial from 80 participating study centers. […] For the study of CARE described in this Example and shown in Tables 21-22, two endpoints were investigated: the primary endpoint of CARE (a composite endpoint of fatal coronary event or nonfatal MI, and identified as “endpt1” in the Endpoint column of Tables 21-22) and a composite endpoint of confirmed fatal or nonfatal MI (identified as “rmi” in the Endpoint column of Tables 21-22). […] HR stands for Hazard Ratio, which is a concept similar to Odds Ratio (OR). The HR in event-free survival analysis is the effect of an explanatory variable on the hazard or risk of an event. […] In Table 21, p-interaction values were calculated. An interaction (or effect modification) is formed when a third variable modifies the relation between an exposure and outcome. […] Genotype and drug interaction is present when the effect of statins (incidence rate of disease in statin-treated group, as compared to placebo) differs in patients with different genotypes.

[1] = hCV25605897 rs11568563 SLCO1A2, Strata GT + GG
[2] = hCV25605897 rs11568563 SLCO1A2, Strata TT
[3] = hCV25607193 FLNB, Strata CT + CC
[4] = hCV25608818 SLC10A2, Strata AG + AA
[5] = hCV25610470 rs34075341 C9orf47, Strata AG + AA
[6] = hCV25610470 rs34075341 C9orf47, Strata GG
[7] = hCV25610774 rs8176748, Strata TC + CC
[8] = hCV25610774 rs8176748, Strata TT
[9] = hCV25610819 rs8176740, Strata TA + AA
[10] = hCV25610819 rs8176740, Strata TT
[11] = hCV25614016 rs7607759 CAPN10, Strata AA
[12] = hCV25614016 rs7607759 CAPN10, Strata GA + GG
[13] = hCV25617571 rs2232580 LBP, Strata CC
[14] = hCV25617571 rs2232580 LBP, Strata TC + TT
[15] = hCV25623265 rs3746638 SIGLEC1, Strata GA + AA
[16] = hCV25623265 rs3746638 SIGLEC1, Strata GG
[17] = hCV25629396 rs3729823 MYH7, Strata CG + CC
[18] = hCV25629396 rs3729823 MYH7, Strata GG
[19] = hCV25629476 rs2427284 LAMA5, Strata AG + AA
[20] = hCV25629476 rs2427284 LAMA5, Strata GG
[21] = hCV25629492 rs944895 LAMA5, Strata AA
[22] = hCV25629492 rs944895 LAMA5, Strata GA + GG
[23] = hCV25629888 rs11539441 TIMP2, Strata GC + CC
[24] = hCV25629888 rs11539441 TIMP2, Strata GG
[25] = hCV25652744 rs1127525 USP21, Strata AA
[26] = hCV25652744 rs1127525 USP21, Strata AC
[27] = hCV25652744 rs1127525 USP21, Strata CC
[28] = hCV28974083 rs8032553 C15orf42, strata GA + AA
[29] = hCV28974083 rs8032553 C15orf42, strata GG
[30] = hCV29011391 rs7557067, strata AG + AA
[31] = hCV29011391 rs7557067, strata GG
[32] = hCV29135108 rs6743779 KLF7, strata AA
[33] = hCV29135108 rs6743779 KLF7, strata CA + CC
[34] = hCV30264691 rs10508518 CUBN, strata GG
[35] = hCV30264691 rs10508518 CUBN, strata TG + TT
[36] = hCV30606396 rs10438978, strata CC
[37] = hCV30606396 rs10438978, strata TC + TT
[38] = hCV31145250 rs10889353 DOCK7, strata AA
[39] = hCV31145250 rs10889353 DOCK7, strata AC + CC
[40] = hCV31237961 rs11950562 SLC22A4, strata AC + AA
[41] = hCV31237961 rs11950562 SLC22A4, strata CC
[42] = hCV31528409 rs7635061, strata AA
[43] = hCV31528409 rs7635061, strata AG + GG
[44] = hCV31954792 rs6477693 C9orf4, strata CA + AA
[45] = hCV31954792 rs6477693 C9orf4, strata CC
[46] = hDV70797856 rs17006217, strata CC
[47] = hDV70797856 rs17006217, strata CT
[48] = hDV70797856 rs17006217, strata TT
[49] = hDV76976592 rs4149274 ABCA1, strata GA + AA
[50] = hDV76976592 rs4149274 ABCA1, strata GG

CC[C@H](C)C(=O)O[C@H]1C[C@H](O)C=C2C=C[C@H](C)[C@H](CC[C@@H](O)C[C@@H](O)CC(=O)O)[C@H]21 [pravastatin]
EVENTS (Pravastatin arm) [1]: 7 | NONEVENT (Pravastatin arm) [1]: 150 | EVENTS (Pravastatin arm) [2]: 126 | NONEVENT (Pravastatin arm) [2]: 1140 | EVENTS (Pravastatin arm) [3]: 6 | NONEVENT (Pravastatin arm) [3]: 33 | EVENTS (Pravastatin arm) (hCV25607193 FLNB, Strata TT): 127 | NONEVENT (Pravastatin arm) (hCV25607193 FLNB, Strata TT): 1258 | EVENTS (Pravastatin arm) [4]: 7 | NONEVENT (Pravastatin arm) [4]: 32 | EVENTS (Pravastatin arm) (hCV25608818 SLC10A2, Strata GG): 126 | NONEVENT (Pravastatin arm) (hCV25608818 SLC10A2, Strata GG): 1258 | EVENTS (Pravastatin arm) [5]: 4 | NONEVENT (Pravastatin arm) [5]: 103 | EVENTS (Pravastatin arm) [6]: 128 | NONEVENT (Pravastatin arm) [6]: 1182 | EVENTS (Pravastatin arm) [7]: 127 | NONEVENT (Pravastatin arm) [7]: 1231 | EVENTS (Pravastatin arm) [8]: 5 | NONEVENT (Pravastatin arm) [8]: 57 | EVENTS (Pravastatin arm) [9]: 128 | NONEVENT (Pravastatin arm) [9]: 1225 | EVENTS (Pravastatin arm) [10]: 5 | NONEVENT (Pravastatin arm) [10]: 58 | EVENTS (Pravastatin arm) [11]: 87 | NONEVENT (Pravastatin arm) [11]: 915 | EVENTS (Pravastatin arm) [12]: 46 | NONEVENT (Pravastatin arm) [12]: 374 | EVENTS (Pravastatin arm) [13]: 117 | NONEVENT (Pravastatin arm) [13]: 1090 | EVENTS (Pravastatin arm) [14]: 16 | NONEVENT (Pravastatin arm) [14]: 200 | EVENTS (Pravastatin arm) [15]: 118 | NONEVENT (Pravastatin arm) [15]: 1000 | EVENTS (Pravastatin arm) [16]: 14 | NONEVENT (Pravastatin arm) [16]: 288 | EVENTS (Pravastatin arm) [17]: 7 | NONEVENT (Pravastatin arm) [17]: 26 | EVENTS (Pravastatin arm) [18]: 125 | NONEVENT (Pravastatin arm) [18]: 1260 | EVENTS (Pravastatin arm) [19]: 22 | NONEVENT (Pravastatin arm) [19]: 131 | EVENTS (Pravastatin arm) [20]: 111 | NONEVENT (Pravastatin arm) [20]: 1158 | EVENTS (Pravastatin arm) [21]: 66 | NONEVENT (Pravastatin arm) [21]: 511 | EVENTS (Pravastatin arm) [22]: 64 | NONEVENT (Pravastatin arm) [22]: 773 | EVENTS (Pravastatin arm) [23]: 125 | NONEVENT (Pravastatin arm) [23]: 1261 | EVENTS (Pravastatin arm) [24]: 7 | NONEVENT (Pravastatin arm) [24]: 30 | EVENTS (Pravastatin arm) [25]: 1 | NONEVENT (Pravastatin arm) [25]: 0 | EVENTS (Pravastatin arm) [26]: 5 | NONEVENT (Pravastatin arm) [26]: 113 | EVENTS (Pravastatin arm) [27]: 127 | NONEVENT (Pravastatin arm) [27]: 1153 | EVENTS (Pravastatin arm) [28]: 105 | NONEVENT (Pravastatin arm) [28]: 902 | EVENTS (Pravastatin arm) [29]: 31 | NONEVENT (Pravastatin arm) [29]: 360 | EVENTS (Pravastatin arm) [30]: 126 | NONEVENT (Pravastatin arm) [30]: 1191 | EVENTS (Pravastatin arm) [31]: 9 | NONEVENT (Pravastatin arm) [31]: 69 | EVENTS (Pravastatin arm) [32]: 74 | NONEVENT (Pravastatin arm) [32]: 601 | EVENTS (Pravastatin arm) [33]: 61 | NONEVENT (Pravastatin arm) [33]: 661 | EVENTS (Pravastatin arm) [34]: 15 | NONEVENT (Pravastatin arm) [34]: 111 | EVENTS (Pravastatin arm) [35]: 121 | NONEVENT (Pravastatin arm) [35]: 1148 | EVENTS (Pravastatin arm) [36]: 96 | NONEVENT (Pravastatin arm) [36]: 834 | EVENTS (Pravastatin arm) [37]: 40 | NONEVENT (Pravastatin arm) [37]: 428 | EVENTS (Pravastatin arm) [38]: 52 | NONEVENT (Pravastatin arm) [38]: 575 | EVENTS (Pravastatin arm) [39]: 84 | NONEVENT (Pravastatin arm) [39]: 685 | EVENTS (Pravastatin arm) [40]: 101 | NONEVENT (Pravastatin arm) [40]: 986 | EVENTS (Pravastatin arm) [41]: 35 | NONEVENT (Pravastatin arm) [41]: 279 | EVENTS (Pravastatin arm) [42]: 62 | NONEVENT (Pravastatin arm) [42]: 659 | EVENTS (Pravastatin arm) [43]: 74 | NONEVENT (Pravastatin arm) [43]: 606 | EVENTS (Pravastatin arm) [44]: 129 | NONEVENT (Pravastatin arm) [44]: 1163 | EVENTS (Pravastatin arm) [45]: 7 | NONEVENT (Pravastatin arm) [45]: 103 | EVENTS (Pravastatin arm) [46]: 2 | NONEVENT (Pravastatin arm) [46]: 14 | EVENTS (Pravastatin arm) [47]: 25 | NONEVENT (Pravastatin arm) [47]: 255 | EVENTS (Pravastatin arm) [48]: 109 | NONEVENT (Pravastatin arm) [48]: 997 | EVENTS (Pravastatin arm) [49]: 84 | NONEVENT (Pravastatin arm) [49]: 705 | EVENTS (Pravastatin arm) [50]: 52 | NONEVENT (Pravastatin arm) [50]: 557 | EVENTS (Pravastatin arm) (hcV15870728 rs2943245 C10orf64, strata CT + TT): 106
